From the supplement of paper PMC6078165
Values are relative to the signal before dosing, not to a vehicle control; the signal also falls without drug.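 Labels refer to human fibroblasts, largely primary: uterine (C12385, HUF), lung (H6013), bone (Hs27A), adrenal (HADF), skin (WS1), plus mammary HMF and breast cancer-associated Hs343T. Cancer lines are basal-like or mesenchymal-like triple-negative breast cancer. The paper counts as hits responses shifting over 3x the replicate standard deviation. The tissue of the other fibroblasts is not given here.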

System: MDAMB436
Assay: relative JC-1 red fluorescence (viability) vs pre-drug, coculture with fibroblast (fraction); higher = more viable cancer cells
Description: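 JC-1 labelled TNBC cells cocultured 1:1 (1,500 cells each) with CellTrace Violet stained primary or stromal fibroblasts in 384-well plates in FluoroBrite medium, treated with one of 42 anticancer drugs at 0.1, 1, 10 or 100 uM. JC-1 red fluorescence (mitochondrial integrity in cancer cells only) was read by plate reader every 8 h for 72 h. Values are normalised to each well's pre-drug value. The stock of one drug was tenfold lower, so its dose labels may be too high.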

CC[C@]1(O)C[C@@H]2CN(CCc3c([nH]c4ccccc34)[C@@](C(=O)OC)(c3cc4c(cc3OC)N(C)[C@H]3[C@@](O)(C(=O)OC)[C@H](OC(C)=O)[C@]5(CC)C=CCN6CC[C@]43[C@@H]65)C2)C1 [Vinblastine]
relative JC-1 red fluorescence
Settings	8 h	16 h	24 h	32 h	40 h	48 h	56 h	64 h	72 h
0.1 µM, coculture fibroblast: C12385	0.7429	0.723	0.722	0.659	0.634	0.625	0.619	0.62	0.642
0.1 µM, coculture fibroblast: H6013	0.815	0.849	0.872	0.897	0.932	0.866	0.895	0.912	0.837
0.1 µM, coculture fibroblast: H6019	0.75	0.752	0.748	0.688	0.673	0.67	0.657	0.656	0.661
0.1 µM, coculture fibroblast: H6076	0.7624	0.7246	0.7489	0.721	0.732	0.72	0.762	0.775	0.783
0.1 µM, coculture fibroblast: H6231	0.769	0.694	0.71	0.619	0.6	0.571	0.559	0.537	0.525
0.1 µM, coculture fibroblast: HADF	0.802	0.7152	0.691	0.666	0.65	0.685	0.628	0.63	0.606
0.1 µM, coculture fibroblast: HCFa	0.762	0.736	0.716	0.697	0.688	0.708	0.651	0.654	0.601
0.1 µM, coculture fibroblast: HCPF	0.728	0.686	0.692	0.633	0.6261	0.598	0.58166	0.574	0.566
0.1 µM, coculture fibroblast: HHSteC	0.79	0.767	0.735	0.7011	0.7	0.713	0.671	0.658	0.631
0.1 µM, coculture fibroblast: HMF	0.7252	0.681	0.668	0.62	0.616	0.579	0.597	0.579	0.578
0.1 µM, coculture fibroblast: HPFa	0.898	0.8141	0.773	0.728	0.72	0.716	0.661	0.644	0.614
0.1 µM, coculture fibroblast: HUF	0.844	0.739	0.72	0.655	0.608	0.577	0.553	0.539	0.536
0.1 µM, coculture fibroblast: Hs5	0.786	0.761	0.751	0.694	0.695	0.646	0.658	0.639	0.648
0.1 µM, coculture fibroblast: Hs27A	0.855	0.798	0.793	0.788	0.79	0.869	0.783	0.799	0.726
0.1 µM, coculture fibroblast: Hs343T	0.80607	0.7511	0.718	0.673	0.641	0.599	0.579	0.559	0.548
0.1 µM, coculture fibroblast: WS1	0.7691	0.717	0.705	0.634	0.609	0.5955	0.589	0.585	0.593
1 µM, coculture fibroblast: C12385	0.79	0.7002	0.705	0.636	0.603	0.581	0.56	0.547	0.559
1 µM, coculture fibroblast: H6013	0.854	0.8475	0.865	0.886	0.893	0.943	0.922	0.924	0.898
1 µM, coculture fibroblast: H6019	0.7622	0.751	0.757	0.718	0.708	0.71	0.691	0.695	0.693
1 µM, coculture fibroblast: H6076	0.797	0.757	0.773	0.74	0.724	0.701	0.723	0.735	0.739
1 µM, coculture fibroblast: H6231	0.834	0.759	0.75297	0.677	0.642	0.614	0.59	0.557	0.534
1 µM, coculture fibroblast: HADF	0.8246	0.763	0.735	0.717	0.7	0.719	0.656	0.649	0.623
1 µM, coculture fibroblast: HCFa	0.796	0.782	0.755	0.726	0.704	0.725	0.66	0.654	0.611
1 µM, coculture fibroblast: HCPF	0.793	0.698	0.6963	0.642	0.6238	0.591	0.564	0.547	0.524
1 µM, coculture fibroblast: HHSteC	0.82	0.822	0.804	0.762	0.764	0.778	0.715	0.697	0.662
1 µM, coculture fibroblast: HMF	0.777	0.767	0.765	0.73	0.711	0.679	0.675	0.656	0.63
1 µM, coculture fibroblast: HPFa	0.925	0.877	0.865	0.823	0.825	0.842	0.778	0.763	0.714
1 µM, coculture fibroblast: HUF	0.884	0.794	0.771	0.698	0.644	0.619	0.593	0.577	0.575
1 µM, coculture fibroblast: Hs5	0.764	0.749	0.762	0.711	0.713	0.674	0.697	0.68	0.696
1 µM, coculture fibroblast: Hs27A	0.963	0.9077	0.937	0.932	0.922	0.9091	0.898	0.889	0.815
1 µM, coculture fibroblast: Hs343T	0.7878	0.7503	0.735	0.6901	0.66	0.625	0.604	0.58	0.569
1 µM, coculture fibroblast: WS1	0.7942	0.744	0.723	0.655	0.618	0.593	0.573	0.56	0.567
10 µM, coculture fibroblast: C12385	0.73	0.722	0.705	0.65	0.627	0.607	0.566	0.532	0.517
10 µM, coculture fibroblast: H6013	0.768	0.782	0.799	0.836	0.836	0.81	0.845	0.83	0.795
10 µM, coculture fibroblast: H6019	0.771	0.755	0.7503	0.7223	0.726	0.712	0.702	0.687	0.684
10 µM, coculture fibroblast: H6076	0.778	0.743	0.74	0.667	0.638	0.608	0.609	0.594	0.576
10 µM, coculture fibroblast: H6231	0.768	0.684	0.683	0.587	0.537	0.503	0.469	0.435	0.4171
10 µM, coculture fibroblast: HADF	0.783	0.796	0.8	0.799	0.786	0.82	0.755	0.729	0.672
10 µM, coculture fibroblast: HCFa	0.795	0.797	0.777	0.764	0.737	0.741	0.671	0.655	0.605
10 µM, coculture fibroblast: HCPF	0.769	0.747	0.7443	0.657	0.608	0.569	0.527	0.501	0.482
10 µM, coculture fibroblast: HHSteC	0.796	0.826	0.836	0.824	0.824	0.845	0.78	0.752	0.694
10 µM, coculture fibroblast: HMF	0.728	0.712	0.73	0.67	0.637	0.584	0.57	0.5318	0.51368
10 µM, coculture fibroblast: HPFa	0.8116	0.776	0.7811	0.761	0.7665	0.779	0.7096	0.701	0.64
10 µM, coculture fibroblast: HUF	0.818	0.7864	0.771	0.719	0.67	0.627	0.586	0.561	0.549
10 µM, coculture fibroblast: Hs5	0.683	0.666	0.6797	0.61	0.59	0.541	0.533	0.496	0.485
10 µM, coculture fibroblast: Hs27A	0.778	0.737	0.734	0.721	0.703	0.764	0.663	0.6521	0.5783
10 µM, coculture fibroblast: Hs343T	0.805	0.765	0.745	0.683	0.634	0.568	0.528	0.502	0.484
10 µM, coculture fibroblast: WS1	0.7457	0.723	0.705	0.646	0.621	0.591	0.565	0.519	0.505
100 µM, coculture fibroblast: C12385	0.74	0.701	0.7036	0.592	0.457	0.376	0.313	0.26	0.238
100 µM, coculture fibroblast: H6013	0.799	0.787	0.723	0.604	0.452	0.423	0.339	0.306	0.256
100 µM, coculture fibroblast: H6019	0.813	0.805	0.757	0.644	0.546	0.483	0.421	0.371	0.339
100 µM, coculture fibroblast: H6076	0.873	0.831	0.793	0.659	0.5063	0.371	0.2625	0.208	0.169
100 µM, coculture fibroblast: H6231	0.865	0.7777	0.765	0.712	0.678	0.489	0.299	0.197	0.156
100 µM, coculture fibroblast: HADF	0.859	0.735	0.72	0.633	0.605	0.565	0.446	0.42	0.358
100 µM, coculture fibroblast: HCFa	0.815	0.834	0.829	0.775	0.599	0.52	0.377	0.345	0.271
100 µM, coculture fibroblast: HCPF	0.9088	0.866	0.833	0.717	0.57	0.432	0.287	0.21	0.164
100 µM, coculture fibroblast: HHSteC	0.748	0.779	0.765	0.678	0.527	0.486	0.372	0.338	0.273
100 µM, coculture fibroblast: HMF	0.92	0.912	0.904	0.811	0.646	0.466	0.301	0.226	0.182
100 µM, coculture fibroblast: HPFa	0.7529	0.769	0.769	0.68	0.535	0.476	0.371	0.346	0.283
100 µM, coculture fibroblast: HUF	0.833	0.7718	0.706	0.541	0.383	0.281	0.222	0.188	0.17
100 µM, coculture fibroblast: Hs5	0.887	0.848	0.819	0.727	0.623	0.481	0.388	0.288	0.227
100 µM, coculture fibroblast: Hs27A	0.756	0.711	0.64	0.536	0.408	0.416	0.281	0.258	0.186
100 µM, coculture fibroblast: Hs343T	0.856	0.85	0.847	0.78	0.699	0.584	0.448	0.36	0.305
100 µM, coculture fibroblast: WS1	0.7607	0.7668	0.732	0.571	0.465	0.391	0.343	0.286	0.259
